PubChem BioAssay AID540256 (National Center for Advancing Translational Sciences (NCATS), 2011)
Out of some 300,000 compounds screened, about 3,700 (1.2%) were called active. The inconclusive results got no clear call from the source; some entries with a clear call stand among them for comparison. Calls come from the whole dose curve; tested in HEK293 cells. Potencies beside an inconclusive call are fits to weak or partial responses and may not hold up.

Experiment: qHTS for Inhibitors of binding or entry into cells for Lassa Virus; note: nearly all actives have a fitted effect of over 50% in size
Conditions: Lassa virus pseudotype entry inhibition, cell reporter; series mostly up to 37.9 µM
Potency is the fitted concentration of half-maximal effect.

Structure (SMILES) | Potency
Cc1csc(Nc2ccccc2)[n+]1-c1ccccc1 | inconclusive: 12.6 µM [inhibitor, partial curve, poor fit]
Cn1c(C(=O)OC(C(=O)NC2CCCC2)c2ccncc2)cc2sccc21 (configuration not stated) | inconclusive: 8.2 µM [inhibitor, partial curve, poor fit]
CCNc1ccc(Br)cc(C(=O)/C=C/c2ccc(Cl)cc2Cl)c1=O | inconclusive: 20.6 µM [inhibitor, partial curve, poor fit]
COCCNc1ccc(N2C(=O)CCCC2=O)cc1[N+](=O)[O-] | inconclusive: 3.98 µM [activator, single point]
Cc1c(C(=O)N(Cc2ccccc2)Cc2cccs2)cnn1-c1ccc(Cl)cc1 | inconclusive: 0.794 µM [inhibitor, full curve, poor fit]
Cc1ccc(CNC(=O)c2ccc3c(c2)CCN3S(=O)(=O)c2ccccc2)cc1 | inconclusive: 20 µM [inhibitor, single point]
CC(C)C(NC(=O)c1ccccc1NC(=O)C(C)(C)C)C(=O)N1CCOCC1 (configuration not stated) | inconclusive: 35.5 µM [activator, single point]
O=C(NC(=O)c1ccccc1)Nc1ccccc1 | inconclusive: 7.08 µM [inhibitor, partial curve, poor fit]
COc1ccc(Nc2nc(-c3ccc4c(c3)NC(=O)CO4)cs2)cc1 | inconclusive: 3.16 µM [inhibitor, full curve, poor fit]
CCOc1ccc(N2CC(C(=O)NC3CCCC3)CC2=O)cc1 (configuration not stated) | inactive
N#CC(CCc1ccccn1)c1ccccc1 (configuration not stated) | inconclusive: 0.316 µM [activator, partial curve, poor fit]
CCOC(=O)COc1ccc(/C=C(\C#N)c2nc3ccc(C)cc3[nH]2)cc1OC | inactive
COc1ccc(CC2(C)OC(c3ccc([N+](=O)[O-])cc3)=NN2C(C)=O)cc1 (configuration not stated) | inconclusive: 0.355 µM [inhibitor, full curve, poor fit]
O=C(Nc1ccc(Cl)c(C(=O)N2CCOCC2)c1)c1ccccc1 | inconclusive: 3.16 µM [inhibitor, partial curve, poor fit]
O=C(NCc1ccccc1)c1ccc(CSc2ccccc2)o1 | inconclusive: 5.01 µM [inhibitor, full curve, poor fit]
CCOC(=O)c1sc(N2C(=O)c3oc4ccccc4c(=O)c3C2c2ccc(C(C)(C)C)cc2)nc1C (configuration not stated) | inactive
COCC(=O)N(C)c1nnc(-c2ccc([N+](=O)[O-])cc2)s1 | inactive
CCOC(=O)c1ccc(N/C=C/C(=O)c2ccccc2)cc1 | inconclusive: 10 µM [inhibitor, partial curve, poor fit]
CCOc1ccc(C(=O)N/N=C/c2cc(Cl)ccc2[N+](=O)[O-])cc1 | inconclusive: 1.26 µM [inhibitor, single point]
Cc1ccccc1CNC(=O)Cn1c(C)c2cnn(-c3ccccc3)c(=O)c2c1C | inconclusive: 5.62 µM [inhibitor, single point]
Cc1c(NC(=O)Cn2nc(C(=O)O)c3ccccc3c2=O)c(=O)n(-c2ccccc2)n1C | inconclusive: 0.891 µM [inhibitor, partial curve, poor fit]
CC1(C)Cc2c(c(N3CCOCC3)nc3sc(C(=O)Nc4ccc(Cl)cc4)c(N)c23)CO1 | inactive
CCN1CCN(c2ccc(S(=O)(=O)N3CCOCC3)cc2NC(=O)c2ccccc2SC)CC1 | inconclusive: 0.316 µM [activator, partial curve, poor fit]

Gathered by group, those above containing an aryl thioether with sulfur outside any ring.
Structure (SMILES) | Potency
O=C(NCc1ccccc1)c1ccc(CSc2ccccc2)o1 | inconclusive: 5.01 µM [inhibitor, full curve, poor fit]
CCN1CCN(c2ccc(S(=O)(=O)N3CCOCC3)cc2NC(=O)c2ccccc2SC)CC1 | inconclusive: 0.316 µM [activator, partial curve, poor fit]

Next results follow.

Structure (SMILES) | Potency
COc1ccc(CNc2ccc(Cl)cc2)cc1Cn1ccnc1 | inactive
CCOc1ccc(NC(=O)CSc2nc(-c3cccc(Cl)c3)nc3c2Cc2c(CO)cnc(C)c2O3)cc1 | inactive
Cc1ccc(C)c(CNS(=O)(=O)c2c(C)[nH]c(C)c2C(=O)N2CCCC2)c1 | inactive
Cc1ccc(-c2nnc(SCC(=O)NCCN3C(=O)CSC3=O)n2C)cc1 | inactive
COC(=O)CNC(=O)c1cccc(-c2ccc(OC)cc2)c1 | inactive
COc1ccccc1NC1=C(Cl)C(=O)N(c2ccccc2)C1=O | inconclusive: 0.82 µM [inhibitor, partial curve, poor fit]
Cc1cc(-c2ccc(C(C)C)c(S(=O)(=O)N3CCOc4ccccc43)c2)on1 | inconclusive: 6.31 µM [inhibitor, partial curve, poor fit]
O=C(c1ccc(Cl)cc1Cl)N1CCN(c2ccccn2)CC1 | inconclusive: 11.2 µM [inhibitor, partial curve, poor fit]
O=C(CSc1ccccc1C(=O)NCc1ccccc1)NC12CC3CC(CC(C3)C1)C2 | active: 10 µM
CCc1ccc(NC(=O)Cn2ccn(-c3ccc(OC)cc3)c(=O)c2=O)cc1 | inactive
Cc1[nH]c2ccccc2c1C(=O)COC(=O)c1c(-c2ccccc2)noc1C | inconclusive: 29.1 µM [inhibitor, single point]
CC(=O)c1ccc(S(=O)(=O)Nc2ccc(-c3ccc(N4CCCCC4)nn3)cc2)cc1 | inactive
Cc1ccccc1C(=O)NCC(=O)Nc1ccc(C)c(S(=O)(=O)N2CCCCCC2)c1 | inconclusive: 35.5 µM [inhibitor, single point]
O=C(NCCCN1CCCCC1)C1CCC(=O)N1CCc1ccccc1 (configuration not stated) | inactive
O=C(c1cc(-c2cccs2)nn1-c1ccccc1)N1CCN(S(=O)(=O)c2ccccc2)CC1 | inconclusive: 7.08 µM [inhibitor, partial curve, poor fit]
N[C@@H](Cc1c[nH]c2ccc(O)cc12)C(=O)O | inconclusive: 32.6 µM [inhibitor, single point]
O=C(N/N=C/C(Br)=C\c1ccccc1)c1cccs1 | inconclusive: 35.5 µM [inhibitor, single point]
CCCNC(=O)OC[C@H]1O[C@H](CCO/N=C/C[C@@H]2C=C[C@H](OC(C)=O)[C@@H](COC(C)=O)O2)C=C[C@@H]1Oc1ccc(OC)cc1 | inconclusive: 29.1 µM [inhibitor, partial curve, poor fit]
Cc1c(Cl)cccc1NC(=O)N1CCC(CN2CCOCC2)CC1 | inactive
Cc1cc(C(=O)Nc2ccc3c(c2)OCCO3)c(C)o1 | inconclusive: 11.2 µM [inhibitor, single point]
O=C(NCc1ccccn1)c1cc(-c2ccccc2)on1 | inconclusive: 6.51 µM [activator, partial curve]
COc1ccc(N(CC(=O)Nc2ccc(C)cc2C)S(=O)(=O)c2c(C)n[nH]c2C)cc1 | inconclusive: 11.2 µM [inhibitor, single point]
CCSc1nnc(NC(=O)c2csc3c2CCCC3)s1 | inactive

Structure (SMILES) | Potency
Cc1ccc(/C=C/C(=O)NCc2cccs2)o1 | inconclusive: 25.1 µM [inhibitor, single point]
N#Cc1ccc(N)cc1OCCCN1CCCCC1 | inconclusive: 31.6 µM [activator, single point]
COc1cccc(Nc2nc3ccc(OC)cc3s2)c1 | inconclusive: 31.6 µM [inhibitor, single point]
COc1cccc(NC(=O)CCc2nc(-c3ccc(C(C)(C)C)cc3)no2)c1 | inconclusive: 0.631 µM [inhibitor, full curve, poor fit]
COc1cc(NC(=O)Nc2cccc(Cl)c2)c(OC)cc1NC(=O)CN1CCCCC1 | inconclusive: 35.5 µM [inhibitor, partial curve, poor fit]
COc1ccc(/C=C/C(=O)N2CCCc3ccccc32)cc1 | inconclusive: 20.6 µM [inhibitor, single point]
O=C(NCc1ccco1)c1cccc(NS(=O)(=O)c2cccc(F)c2)c1 | inconclusive: 3.55 µM [inhibitor, single point]
COc1cc(C(=O)OCC(=O)NC2CCCC2)cc(OC)c1OC | inconclusive: 15.8 µM [activator, partial curve, poor fit]
Cc1cc(NC(=O)NC(=O)c2ccc(F)cc2F)n[nH]1 | active: 15.8 µM
CCN(CC)S(=O)(=O)c1cccc(-c2nnc(SCCOc3ccccc3)o2)c1 | active: 10 µM
O=C(CSc1nccn1-c1ccccc1)Nc1ccc2c(c1)OCO2 | inconclusive: 35.5 µM [inhibitor, partial curve, poor fit]
CN(C)S(=O)(=O)c1cccc(NC(=O)c2cncc(Br)c2)c1 | inactive
CC(C)(C)c1cc(C(=O)NCCN2CCCC2)cc(C(C)(C)C)c1 | inconclusive: 11.2 µM [inhibitor, partial curve, poor fit]
CN(C)S(=O)(=O)c1ccc(N2CCCC2)c(C(=O)Nc2nc(-c3ccc(F)c(F)c3)cs2)c1 | inactive
Cc1cc2c(cc1S(=O)(=O)CCC(=O)N(C)C1CCCCC1)OCC(=O)N2 | inactive
CN(C)c1ccc(C(C(=O)NCC2CCCO2)N(Cc2ccccc2)C(=O)c2snc(C(N)=O)c2N)cc1 (configuration not stated) | inconclusive: 8.91 µM [inhibitor, partial curve, poor fit]
CCCn1c(=O)c2ccccc2n2c(SCCOc3ccccc3F)nnc12 | inconclusive: 29.1 µM [inhibitor, single point]
O=C(N/N=C\C=C\c1ccc2c(c1)OCO2)c1ccc(F)cc1 | inactive
O=c1c2c(nc3cc(-c4cccc(Cl)c4)[nH]n13)CCCC2 | active: 4.47 µM
Cc1ccccc1NC(=O)Cc1nnc(SCC(=O)NC2CCCCC2)n1C | inactive
CCOc1cc(/C=C/c2ccc3cccc([N+](=O)[O-])c3n2)ccc1O | inconclusive: 14.1 µM [inhibitor, single point]
